Test results from article PMC5103075, “An immunostimulatory dual-functional nanocarrier that improves cancer immunochemotherapy” (Nature Communications, 2016).
In brackets after ≈: the same amount, converted by molar mass.

Test system: PC3 cells
Assay: MTT cytotoxicity in PC3 cells
Assay type: cell-based, human
Details: PC3, 72 h, means±s.e.m.
Procedure: 4T1.2 or PC3 cells at 2,000 cells/well were seeded in 96-well plates, respectively. […] After 3 days of incubation, 20 μl of 3-(4, 5-dimethylthiazol-2-yl)-2,5-diphenyltetrazoliumbromide (MTT) in DPBS (5 mg ml^−1) was added to each well and cells were further incubated for 2 h. Medium was removed and MTT formazan crystals were solubilized by 100 μl of DMSO per well. Absorbance of each well was measured with a microplate reader at wavelength of 550 nm. Untreated wells were used as controls. Cell viability was calculated as ((ODtreated−ODblank)/(ODcontrol−ODblank) × 100%).

Work on `COc1cccc2c1C(=O)c1c(O)c3c(c(O)c1C2=O)C[C@@](O)(C(=O)CO)C[C@@H]3O[C@H]1C[C@H](N)[C@H](O)[C@H](C)O1` [DOX, doxorubicin] yielded an IC50 of 0.54804 ± 0.05893 µg/mL (≈ 1.01 µM).
